{"source": "patent US20220402914A1", "about": "“Tryptoline-Based Benzothiazoles and their use as Antibiotics and Antibiotic Resistance-Modifying Agents” (The Regents of the University of Colorado, a body corporate, priority 2019, published 2022)", "system": "MRSA ATCC BAA-44", "assay": "Minimum re-sensitizing concentration (MRC) in the presence of cefazolin", "assay_type": "cell-based, Staphylococcus aureus", "details": "MRSA BAA-44 in combination with cefazolin (8 μg/mL)", "procedure": "RMA activity of the analogues was tested by assessing their abilities to sensitize MRSA to the antibiotic cefazolin (a first-generation cephalosporin). The well characterized strain MRSA ATCC BAA-44 was tested as previously described. […] The minimal inhibitory concentration (MIC), or the lowest concentration at which S. aureus is considered susceptible to an antibacterial, was determined by the standard broth microdilution method detailed in the CLSI handbook. RMA activity was compared by the ratio of MIC/MRC. The half growth inhibitory concentration (GI50) of each analogue against HeLa cells was determined as previously described. […] The luminescence of each sample was recorded in an Envision Multilabel Plate Reader (Perkin Elmer). Results of MICs and MRCs were confirmed by testing in triplicate. The GI50 assay was performed in duplicate.", "note": "Counter-ions that a name gives are not always drawn. At least one read-out could not be matched to a standard name with certainty.", "data": [{"compound": "N=C(N)NCC1CN(c2nc3ccc(Cl)cc3s2)Cc2[nH]c3ccc(Cl)cc3c21", "note": "(racemic) [Compound 12g, 1-((6-chloro-2-(6-chlorobenzo[d]thiazol-2-yl)-2,3,4,9-tetrahydro-1H-pyrido[3,4-b]indol-4-yl)methyl)guanidine hydrochloride]", "values": [{"measurement": "MRC", "value": 1, "unit": "µg/mL"}]}]}
